{"source": "PubChem BioAssay AID652272 (Drosophila RNAi Screening Center, 2013)", "screen": "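Genome-wide knock-down search for components of Hedgehog signalling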 (primary screen)", "cell system": "Drosophila clone 8 (Cl8) cells", "knock-down reagent": "long dsRNA against Drosophila genes", "read-out": "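Firefly light from a Hedgehog-responsive ptc promoter reporter and Renilla reference light, both read on a plate reader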", "direction": "firefly Hh reporter signal: higher = more ptc reporter light; Renilla reference signal: higher = more Renilla control light", "rule for the call": "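Called a hit if the two-replicate mean z-score lies below -2 or above +3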", "meaning of the calls": "active = hit: reporter lowered or raised; inactive = not a hit", "note": "The deposit covers about 21,000 reagents; below is an unselected part of those that have a named target and a result. In the full data, 503 (2.4%) are marked active. 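Raw plate light values, not normalised; calls rest on replicate z-scores that were not deposited; hits include reporter decreases as well as increases.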 A number with no mark means an inactive call. Names joined by + are all predicted targets of the reagent. Not given: the amount of reagent, the time to read-out."}
{"target": "Nnp-1", "amplicon": "DRSC02165", "firefly Hh reporter signal, replicate 1": 1.01e5, "firefly Hh reporter signal, replicate 2": 52805, "Renilla reference signal, replicate 1": 2450, "Renilla reference signal, replicate 2": 5059}
{"target": "CG7882", "amplicon": "DRSC04899", "firefly Hh reporter signal, replicate 1": 82947, "firefly Hh reporter signal, replicate 2": 65577, "Renilla reference signal, replicate 1": 1976, "Renilla reference signal, replicate 2": 5041}
{"target": "trr (trithorax-related)", "amplicon": "DRSC18845", "firefly Hh reporter signal, replicate 1": 58625, "firefly Hh reporter signal, replicate 2": 77878, "Renilla reference signal, replicate 1": 1180, "Renilla reference signal, replicate 2": 1667}
{"target": "CG1648", "amplicon": "DRSC06610", "firefly Hh reporter signal, replicate 1": 1.57e5, "firefly Hh reporter signal, replicate 2": 4.39e5, "firefly Hh reporter signal, replicate 3": 99824, "Renilla reference signal, replicate 1": 5553, "Renilla reference signal, replicate 2": 25860}
{"target": "Dyb (Dystrobrevin)", "amplicon": "DRSC07208", "firefly Hh reporter signal, replicate 1": 1.55e5, "firefly Hh reporter signal, replicate 2": 6.16e5, "firefly Hh reporter signal, replicate 3": 1.07e5, "Renilla reference signal, replicate 1": 6368, "Renilla reference signal, replicate 2": 38131}
{"target": "Pldn (Pallidin)", "amplicon": "DRSC10137", "firefly Hh reporter signal, replicate 1": 79781, "firefly Hh reporter signal, replicate 2": 66244, "firefly Hh reporter signal, replicate 3": 72904, "Renilla reference signal, replicate 1": 5852, "Renilla reference signal, replicate 2": 5606}
{"target": "bt (bent)", "amplicon": "DRSC17129", "firefly Hh reporter signal, replicate 1": 1.25e5, "firefly Hh reporter signal, replicate 2": 52810, "Renilla reference signal, replicate 1": 2955, "Renilla reference signal, replicate 2": 1877}
{"target": "bt (bent)", "amplicon": "DRSC17171", "firefly Hh reporter signal, replicate 1": 1.35e5, "firefly Hh reporter signal, replicate 2": 73853, "Renilla reference signal, replicate 1": 3610, "Renilla reference signal, replicate 2": 2722}
{"target": "CG33635", "amplicon": "DRSC00006", "firefly Hh reporter signal, replicate 1": 5.30e5, "firefly Hh reporter signal, replicate 2": 2.59e5, "Renilla reference signal, replicate 1": 27253, "Renilla reference signal, replicate 2": 9632}
{"target": "CG32767", "amplicon": "DRSC18386", "firefly Hh reporter signal, replicate 1": "57652 (active)", "firefly Hh reporter signal, replicate 2": 1.42e5, "Renilla reference signal, replicate 1": 3376, "Renilla reference signal, replicate 2": 9812}
{"target": "Fatp2 (Fatty acid transport protein 2)", "amplicon": "DRSC03971", "firefly Hh reporter signal, replicate 1": 1.26e5, "firefly Hh reporter signal, replicate 2": 2.13e5, "Renilla reference signal, replicate 1": 3562, "Renilla reference signal, replicate 2": 10548}
{"target": "Fatp2 (Fatty acid transport protein 2)", "amplicon": "DRSC04178", "firefly Hh reporter signal, replicate 1": 94358, "firefly Hh reporter signal, replicate 2": 50560, "Renilla reference signal, replicate 1": 1568, "Renilla reference signal, replicate 2": 4772}
{"target": "Fatp2 (Fatty acid transport protein 2)", "amplicon": "DRSC04330", "firefly Hh reporter signal, replicate 1": 1.05e5, "firefly Hh reporter signal, replicate 2": 63949, "Renilla reference signal, replicate 1": 2178, "Renilla reference signal, replicate 2": 5776}
{"target": "vvl (ventral veins lacking)", "amplicon": "DRSC11409", "firefly Hh reporter signal, replicate 1": 54880, "firefly Hh reporter signal, replicate 2": 53826, "Renilla reference signal, replicate 1": 5819, "Renilla reference signal, replicate 2": 3547}
{"target": "CG31743 + CG34313", "amplicon": "DRSC02781", "firefly Hh reporter signal, replicate 1": 80693, "firefly Hh reporter signal, replicate 2": 62656, "Renilla reference signal, replicate 1": 2436, "Renilla reference signal, replicate 2": 1952}
{"target": "CG31743 + CG34313", "amplicon": "DRSC02782", "firefly Hh reporter signal, replicate 1": 1.54e5, "firefly Hh reporter signal, replicate 2": 53485, "Renilla reference signal, replicate 1": 3719, "Renilla reference signal, replicate 2": 4816}
{"target": "CG31678", "amplicon": "DRSC02618", "firefly Hh reporter signal, replicate 1": 1.01e5, "firefly Hh reporter signal, replicate 2": 82460, "Renilla reference signal, replicate 1": 4080, "Renilla reference signal, replicate 2": 3035}
{"target": "CG31678", "amplicon": "DRSC02619", "firefly Hh reporter signal, replicate 1": 80288, "firefly Hh reporter signal, replicate 2": 48136, "Renilla reference signal, replicate 1": 2321, "Renilla reference signal, replicate 2": 5216}
{"target": "danr (distal antenna-related)", "amplicon": "DRSC14651", "firefly Hh reporter signal, replicate 1": 5.00e5, "firefly Hh reporter signal, replicate 2": 91641, "Renilla reference signal, replicate 1": 25158, "Renilla reference signal, replicate 2": 2882}
{"target": "sosie", "amplicon": "DRSC14636", "firefly Hh reporter signal, replicate 1": 7.10e5, "firefly Hh reporter signal, replicate 2": 1.54e5, "Renilla reference signal, replicate 1": 35233, "Renilla reference signal, replicate 2": 4696}
{"target": "CG10681", "amplicon": "DRSC09777", "firefly Hh reporter signal, replicate 1": 1.57e5, "firefly Hh reporter signal, replicate 2": 1.10e5, "Renilla reference signal, replicate 1": 7088, "Renilla reference signal, replicate 2": 4976}
